Positions count from the first letter of the chain named. No constants are given. Whether binding was seen depends on the method and setting. In cells and extracts the contact can be indirect. Some binding calls cover weakened binding; strength is not graded here. For some assays here: Tags and fused reporters may be left off the sequences shown.
Legend:
CAPZA^Acp1-AA (S. pombe) = target: T1, CAPZA^Acp1-AA (S. pombe) (UniProt Q10434); test: co-IP; anti-HA immunoprecipitation of Acp1–HA under non-denaturing conditions from S. pombe lysate, 1 hour at 4°C; anti-GFP blot for Acp2–GFP; cells treated with DMSO or Torin1 (25 µM); wild-type, TORC1^R and TORC2^R strains
T1 sequence: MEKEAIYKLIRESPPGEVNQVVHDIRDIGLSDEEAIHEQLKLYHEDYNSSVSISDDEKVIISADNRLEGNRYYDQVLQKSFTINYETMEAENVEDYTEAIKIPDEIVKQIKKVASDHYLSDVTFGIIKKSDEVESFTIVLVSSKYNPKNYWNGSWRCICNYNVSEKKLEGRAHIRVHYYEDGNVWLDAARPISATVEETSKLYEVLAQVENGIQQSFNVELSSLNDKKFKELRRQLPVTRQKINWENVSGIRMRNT

Amino acid sequences for entries named in this document (tags omitted).
UniProt Q9HGP5: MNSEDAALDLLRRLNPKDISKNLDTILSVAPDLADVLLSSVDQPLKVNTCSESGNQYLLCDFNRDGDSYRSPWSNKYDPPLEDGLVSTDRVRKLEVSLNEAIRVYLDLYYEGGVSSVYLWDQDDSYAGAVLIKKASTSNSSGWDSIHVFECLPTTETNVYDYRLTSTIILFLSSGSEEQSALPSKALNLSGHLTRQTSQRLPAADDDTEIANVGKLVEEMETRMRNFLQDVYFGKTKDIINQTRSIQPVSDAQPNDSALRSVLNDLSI

CAPZA^Acp1–HA (S. pombe) = target: T2, CAPZA^Acp1–HA (S. pombe) (UniProt Q10434); test: as above
T2 sequence: T1 sequence with A172S, A189S

binding (CAPZA^Acp1-AA (S. pombe)): binds | binding (CAPZA^Acp1–HA (S. pombe)): binds
Substance: CAPZB^Acp2–GFP (from UniProt Q9HGP5 1-268)

Reference: publication PMC4958305
